Data as given in PubChem BioAssay AID1487 (National Center for Advancing Translational Sciences (NCATS), 2009).
“And” between values parts separate entries of the source, which are not always exact repeats. Equal entries are not always repeated. The list shows a part of the results. Shown are side measurements of this screen, not its main read-out; they come without a call. The list favours compounds with an active or inconclusive main result. The note in brackets gives the kind of curve behind each potency; many fits are weak.

Assay: qHTS Assay for Modulators of Lamin A Splicing
Conditions: HeLa LMNA splicing GFP/RFP minigene ratio, 48 h
Summary of the method: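 S3 HeLa stable clones carrying a lamin A-EGFP splicing minigene plus DsRed2 were seeded at 600 cells/well in Opti-MEM with 2% FBS, pin-dosed and incubated 48 h at 37°C. Acumen cytometry (488 nm) gave the GFP/RFP total-intensity ratio.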

[1] = measured here: RFP viability control channel
[2] = measured here: GFP splicing reporter channel

Row | SMILES | AC50 [1] | AC50 [2]
1 | COc1ccccc1C(=O)NCCn1cc(SCC(=O)Nc2cc(C)on2)c2ccccc21 | 17.8 µM [rising, single point] | 
2 | Nc1cccc2nc3ccccc3cc12 | 11.2 µM [falling, partial curve, poor fit] | 7.94 µM [falling, partial curve, poor fit]
3 | O=C(c1cccc(Br)c1)N1CCN(Cc2cc(=O)n3nc(-c4ccccc4)sc3n2)CC1 | 31.6 µM [rising, single point] | 
4 | CCc1nc2ccccc2c(C(=O)OCC(=O)Nc2cccc(S(=O)(=O)N3CCOCC3)c2)c1C | 20 µM [falling, partial curve] | 15.8 µM [falling, single point]
5 | CCOC(=O)c1ccc2c(c1)nc(-c1ccc(F)cc1)c1nccn12 | 0.0112 µM [rising, full curve, poor fit] | 
6 | CCOC(=O)c1c(NC(=O)/C=C/c2ccc3c(c2)OCO3)sc(C)c1CC | 35.5 µM [falling, single point] | 35.5 µM [falling, single point]
7 | COc1ccc2c(Cl)c(C(=O)NN)sc2c1 | 31.6 µM [rising, single point] | 35.5 µM [rising, single point]
8 | O=C(CN1C2=NCCN2c2ccccc21)C12CC3CC(CC(C3)C1)C2 | 3.55 µM [rising, partial curve] | 3.55 µM [rising, partial curve]
9 | c1ccc(CNc2nc(CN3CCOCC3)nc3scc(-c4ccccc4)c23)cc1 | 8.91 µM [rising, partial curve] | 
10 | CC1CCCCC1NC(=S)NC(=O)c1ccccc1Br (stereo not given) | 22.4 µM [rising, single point] | 12.6 µM [rising, single point]
11 | COC(=O)/C=C1/N/C(=N\c2nc(C)cc(C)n2)N(c2ccc(C)c(C)c2)C1=O | 12.6 µM [rising, partial curve, poor fit] | 
12 | COc1ccc(Nc2nnc(Cc3ccc(Cl)cc3)c(=O)[nH]2)c(OC)c1 | 22.4 µM [falling, single point] | 28.2 µM [falling, single point]
13 | O=C(N/N=C/c1ccc(C(F)(F)F)cc1)c1ccc(O)cc1 | 12.6 µM [rising, single point] | 
14 | COc1ccc(-n2nnnc2SCC(=O)Nc2ccccc2N2CCOCC2)cc1OC |  | 0.158 µM [rising, partial curve]
15 | Cc1nc2[nH]c(=S)[nH]c2cc1Br | 35.5 µM [rising, single point] | 
16 | COc1ccc(/C=C/c2ccc(=O)n(Cc3ccccc3)n2)cc1 | 3.16 µM [falling, full curve] | 10 µM [falling, partial curve]
17 | CC(=O)N1CCc2cc(N=NC3=C(O)CC(C)(C)CC3=O)ccc21 |  | 0.0112 µM [rising, full curve, poor fit]
18 | CN(C(=O)c1ccc2c(c1)N(Cc1cccc(Cl)c1)C(=O)c1ccccc1S2=O)C1CCCCC1 (stereo not given) | 22.4 µM [rising, single point] | 
19 | Cc1ccc(C(=O)COC(=O)c2cc(=O)[nH]c3ccccc23)cc1 |  | 3.16 µM [falling, partial curve, poor fit]
20 | Cc1cc(C)cc(OC(=O)CS(=O)c2ccc(C(F)(F)F)cc2[N+](=O)[O-])c1 (stereo not given) | 35.5 µM [falling, single point] | 35.5 µM [falling, single point]
21 | Cc1oc2ncn(C)c(=O)c2c1C(=O)NC(C)c1ccccc1 (stereo not given) | 5.62 µM [falling, partial curve, poor fit] | 
22 | O=c1c2ccccc2nc2n1C(CSc1ccccc1)CS2 (stereo not given) | 3.55 µM [rising, partial curve, poor fit] | 
23 | CNCc1ccccc1Sc1cccc2ccccc12 | 22.4 µM [rising, single point] | 10 µM [rising, partial curve, poor fit]
24 | COc1ccccc1NCc1cccn1-c1nnc(N2CCOCC2)s1 |  | 3.16 µM [falling, partial curve, poor fit]
25 | Cc1ccc(N2C(=O)CC(Sc3ccccc3C(=O)O)C2=O)c([N+](=O)[O-])c1 (stereo not given) | 10 µM [falling, partial curve] | 35.5 µM [falling, partial curve, poor fit]
26 | CC(=O)[C@@]1(O)CC[C@H]2[C@H]3C[C@@H](C)C4=CC(=O)C=C[C@]4(C)[C@@]3(F)[C@@H](O)C[C@]21C |  | 0.0112 µM [falling, full curve]
27 | COc1ccc(NC(=O)c2ccc(Oc3ncccn3)cc2)cc1 | 5.62 µM [rising, single point] | 

Row | SMILES | AC50 [1] | AC50 [2]
28 | C=C1c2ccccc2NC(=S)N1Cc1ccc2c(c1)OCO2 | 20 µM [rising, partial curve, poor fit] | 12.6 µM [rising, partial curve, poor fit]
29 | O=C(c1cnc(N2CCCCC2)c2ccccc12)N1CCN(c2ccccc2F)CC1 | 22.4 µM [falling, partial curve, poor fit] | 35.5 µM [falling, single point]
30 | CC(=O)N1CCc2cc(CNS(=O)(=O)c3ccc(Br)s3)ccc21 | 2.24 µM [rising, full curve] | 1.26 µM [rising, full curve, poor fit]
31 | CCCc1cc(=O)[nH]c(=S)[nH]1 | 0.000891 µM [falling, full curve, poor fit] | 0.891 nM [falling, full curve, poor fit] and 2.82 µM [rising, full curve]
32 | CCOC(=O)n1c(=O)n(C)c2ccc(Cl)cc21 |  | 1.58 µM [falling, full curve, poor fit]
33 | O=C(c1nn(Cc2ccccc2)c(=O)c2ccccc12)N1CCc2ccccc2C1 | 31.6 µM [rising, single point] | 
34 | COCCCn1c(=S)[nH]c2sc3c(c2c1=O)CCCS3 | 15.8 µM [falling, single point] | 
35 | CCOc1ccc(C(=O)NCCc2sc3nc(-c4ccc(Cl)cc4)nn3c2C)cc1OCC |  | 0.141 µM [falling, full curve]
36 | Cc1cccc(NC(=S)N(CCN2CCOCC2)Cc2ccccc2F)c1 | 0.00316 µM [falling, full curve, poor fit] | 
37 | COc1ccc(CNC(=O)c2c(C)oc3c2C(=O)c2ccccc2C3=O)cc1 | 15.8 µM [falling, partial curve] | 14.1 µM [falling, partial curve, poor fit]
38 | CN(c1ccc(F)cc1)S(=O)(=O)c1ccc(Cl)c(C(=O)Nc2ccc3c(c2)CCC3)c1 | 12.6 µM [rising, partial curve] | 
39 | O=C(NCC(c1cccs1)N1CCOCC1)c1cccc([N+](=O)[O-])c1 (stereo not given) | 17.8 µM [rising, single point] | 
40 | CN(C1CCCC1)C1CCN(C(=O)CNC(=O)/C=C/c2ccccc2)CC1 | 35.5 µM [rising, single point] | 
41 | O=C(CCCN1C(=O)/C(=C/c2ccccc2Cl)SC1=S)NNC(=O)c1ccccc1Cl | 2.82 µM [rising, full curve, poor fit] | 
42 | COC(=O)Cn1ncc2c(C)n(Cc3ccccc3)c(C)c2c1=O | 14.1 µM [rising, single point] | 
43 | O=C(c1ccc2c(c1)OCCO2)N(Cc1cccnc1)c1nc2c(F)cccc2s1 | 22.4 µM [rising, partial curve, poor fit] | 0.316 µM [rising, full curve, poor fit]
44 | CCN1C(=O)C2(Nc3ccccc3-c3nc4ccccc4n32)c2cc(OC)ccc21 (stereo not given) | 5.01 µM [rising, partial curve] | 0.316 µM [rising, partial curve, poor fit]
45 | CC1CCN(S(=O)(=O)c2ccc(C(=O)Nc3sccc3C(N)=O)cc2)CC1 | 35.5 µM [rising, single point] | 
46 | COc1ccc(/C=C/C(=O)c2ccccc2)cc1Cn1nnc2ccccc21 | 35.5 µM [falling, single point] | 35.5 µM [falling, single point]
47 | Cn1c(C(=O)NCCc2ccccc2)cc2c(=O)n3ccccc3nc21 | 3.16 µM [rising, partial curve, poor fit] | 2 µM [rising, partial curve]
48 | COc1ccc(-c2nc3cc(NC(=O)Cc4ccc(OC)c(OC)c4)ccc3o2)cc1 | 3.98 µM [rising, full curve] | 
49 | OC(COC(c1ccccc1)c1ccccc1)CN1CCc2ccccc2C1 (stereo not given) | 35.5 µM [rising, single point] | 20 µM [rising, single point]
50 | CCCN1C(=O)/C(=C/c2c(NCCCOC(C)C)nc3c(C)cccn3c2=O)SC1=S | 11.2 µM [falling, partial curve, poor fit] | 
51 | CC1=C(CC(=O)O)c2cc(F)ccc2/C1=C\c1ccc(S(C)=O)cc1 (stereo not given) | 0.00562 µM [falling, full curve, poor fit] | 
52 | O=C1C=C(c2ccccc2)CC(/C=C/c2ccccc2)C1 (stereo not given) | 35.5 µM [rising, single point] | 
53 | COc1ccccc1NC(=S)NC1CCC(CC2CCC(NC(=S)Nc3ccccc3OC)CC2)CC1 (stereo not given) | 10 µM [rising, partial curve] | 10 µM [rising, single point]

Grouped by structure, those above with a CF3 group.
Row | SMILES | AC50 [1] | AC50 [2]
13 | O=C(N/N=C/c1ccc(C(F)(F)F)cc1)c1ccc(O)cc1 | 12.6 µM [rising, single point] | 
20 | Cc1cc(C)cc(OC(=O)CS(=O)c2ccc(C(F)(F)F)cc2[N+](=O)[O-])c1 (stereo not given) | 35.5 µM [falling, single point] | 35.5 µM [falling, single point]

3 compounds from above, ordered by SMILES length, smallest number first.
Row | SMILES | AC50 [1] | AC50 [2]
13 | O=C(N/N=C/c1ccc(C(F)(F)F)cc1)c1ccc(O)cc1 | 12.6 µM [rising, single point] | 
14 | COc1ccc(-n2nnnc2SCC(=O)Nc2ccccc2N2CCOCC2)cc1OC |  | 0.158 µM [rising, partial curve]
43 | O=C(c1ccc2c(c1)OCCO2)N(Cc1cccnc1)c1nc2c(F)cccc2s1 | 22.4 µM [rising, partial curve, poor fit] | 0.316 µM [rising, full curve, poor fit]
